This is an account of results in patent US20260382643A1, “MITOCHONDRIA-TARGETED N-ACETYLCYSTEINE AND ANALOGS” (published 2026).

The test relates to cancer cells (MiaPaCa-2, MDA-MB-231, MCF-7, A549). Nature of the test: Cell proliferation (IncuCyte), several cancer cell lines. To be noted: vs NAC.

A number of entries come with more than one value. The other results are left out here. There may be further records. Results that share an entry differ for a reason that is not stated; dose, time, organism, isomer or construct need not be as stated for each record.

As for `CC(=O)N[C@@H](CS)C(=O)NCCCCCCCCCC[P+](c1ccccc1)(c1ccccc1)c1ccccc1`, the “antiproliferative potency of Mito10-NAC relative to NAC (times/fold)” value was 1,500-2,000 fold and 2,000 fold and 1,500-2,400 fold.
